Substrate in the experiment: SPN C-terminal domain (SPNct; residues 193–451) (S. pyogenes M3) (UniProt A0A0H2)
The experiment can be described thus: crystal structure; purified SPNct-IFS complex after α-chymotrypsin proteolysis; sitting drop at 295 K, 20% tacsimate pH 4.0, 20% PEG 3350; Se SAD, refined at 1.70 Å; two heterodimeric complexes in the asymmetric unit; both purified.

No constants are given. Whether binding was seen depends on the method and setting. A result given as binding can be weak or reduced; the word gives no strength.

B1: immunity factor for SPN (IFS), full length (residues 1–161) (protein, UniProt Q2VJ58 1-161)
chain: MYKVPKGLEHYQKMFQKEVTVNDLKKYLIGSDKEYRITRRDSYMGDISDPEVILEYGVYPAFIKGYTQLKANIEEALLEMSNSGQALDIYQAVQTLNAENMLLNYYESLPFYLNRQSILANITKALKDAHIREAMAHYKLGEFAHYQDTMLDMVERTIETF
With B1, the binding entry was “binds”.

The values above are taken from article PMC3795565.
